Measurements published in PubChem BioAssay AID504444 (National Center for Advancing Translational Sciences (NCATS), 2011).
The whole screen tested about 360,000 compounds, of which about 7,500 (2.1%) were called active. Inconclusive results, whose numbers are uncertain, are shown with a selection of clear calls. The call rests on the fitted dose curve; in most records, active means well fitted inhibition curve with a large enough effect; inconclusive means small, poorly fitted or top-dose-only effect, or effect the other way; inactive means flat fitted curve, though single readings scatter. Potencies of inconclusive entries are doubtful fits and often do not repeat.

Assay: Nrf2 qHTS screen for inhibitors; further: nearly all actives have a fitted effect of over 60% in size
Conditions: A549 ARE-Fluc reporter, luciferase luminescence, 18-24 h; activity change, negative = inhibition: at 46 µM (top of the series)
How it was run: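 Two sequential reads on A549 ARE_Fluc cells exposed to compound for 18-24 h: a CellTiter-Fluor fluorescence read for viability, then a luciferase luminescence read for Nrf2/ARE activity.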
On the % scale 0 is the no-effect control and ±100 the full control effect; potency means the concentration at half of the fitted maximal effect.

Row | SMILES | Potency | activity change, negative = inhibition
1 | COc1ccc(NC(=O)c2cccc3c2C(=O)N(C2CCCCC2)C3)cc1 | inconclusive: 6.51 µM [falling, full curve] | 
2 | COc1cc(C(=O)Nc2nc(OC)c(-c3ccccc3)c(OC)n2)cc(OC)c1OC | inconclusive: 29.1 µM [falling, single point] | 
3 | O=C(Nc1ccc(F)cc1F)c1ccc(-n2cccn2)nc1 | inconclusive: 6.51 µM [falling, partial curve] | 
4 | C=CCN(c1ccccc1)S(=O)(=O)c1cccc(C(=O)Nc2ccc(N3CCOCC3)cc2)c1 | inconclusive: 29.1 µM [falling, single point] | 
5 | COc1ccc(C2CC(c3cccs3)=NN2C(=O)COC(=O)c2cncc(Br)c2)cc1OC (stereo not drawn) | inconclusive: 9.2 µM [falling, partial curve] | 
6 | CC(C)n1cnc2c(NCc3ccccc3)cc(OCC3CCN(C)CC3)cc21 |  | inactive: -1.88%
7 | CC1(C)Cc2c(cnn2-c2ccccc2)-c2c1c1ccccc1n2CC(O)CCl (stereo not drawn) | inconclusive: 18.4 µM [falling, single point] | 
8 | COc1ccccc1/C=C1\SC(=S)N(CCC(=O)N2CCN(C)CC2)C1=O | inconclusive: 25.9 µM [activator, single point] | 
9 | O=C(NCc1ccccn1)c1ccc(Cl)c(S(=O)(=O)N2CCCCCC2)c1 | inconclusive: 20.6 µM [falling, single point] | 
10 | COCCCNC(=O)c1c(NC(=O)Cc2coc3cc(C)ccc23)sc2c1CCCC2 | inconclusive: 29.1 µM [activator, single point] | 
11 | CC(=O)Nc1ccc(NC(=O)c2ccccc2S(=O)(=O)c2ccc([N+](=O)[O-])cc2)cc1 |  | inactive: -16%
12 | O=S(=O)(Nc1cccc2ccccc12)N1CCCC1 |  | inactive: -13%
13 | Cc1ccc(NS(=O)(=O)c2ccc(C(=O)NCc3cccnc3)cc2)cc1 | inconclusive: 16.4 µM [falling, partial curve, poor fit] | 
14 | Cc1ccc(NC(=O)CN2C(=O)NC3(CCCCCCC3)C2=O)cc1C |  | inactive: -4.49%
15 | CCNC(=S)N=Nc1c(O)n(Cc2ccc(Cl)cc2)c2ccccc12 | inconclusive: 3.26 µM [falling, full curve, poor fit] | 
16 | O=[N+]([O-])c1cc(-c2nc(-c3ccccc3)no2)ccc1NCc1ccco1 | inconclusive: 29.1 µM [falling, single point] | 
17 | CC(C)CN(C(=O)CN(C)CC(=O)Nc1ccc(Cl)c(C(F)(F)F)c1)c1c(N)n(CC(C)C)c(=O)[nH]c1=O | inconclusive: 14.6 µM [falling, single point] | 
18 | COc1ccc(NC(=O)CSc2nc3ccccc3nc2N2CCOCC2)c(OC)c1 | inconclusive: 8.2 µM [falling, partial curve, poor fit] | 
19 | COc1cc(SC)ccc1C(=O)Nc1ccc2c(c1)CCN2S(C)(=O)=O | inconclusive: 0.0046 µM [falling, full curve, poor fit] | 
20 | Cc1ccc2oc(C(=O)N(C)Cc3ccc(C)o3)c(C)c2c1 |  | inactive: 5.5%
21 | CC1(C)N=C(N)N=C(N)N1c1ccc(OCCCOc2ccccc2)c(Cl)c1 | inconclusive: 13 µM [falling, partial curve, poor fit] | 

Row | SMILES | Potency | activity change, negative = inhibition
22 | O=C1C(Cl)=C(NC2CCCCC2)C(=O)N1c1ccc(Cl)cc1 | inconclusive: 25.9 µM [activator, partial curve] | 
23 | CCN1/C(=C\c2ccc3ccccc3[n+]2CC)Sc2cc(C)ccc21 | inconclusive: 1.16 µM [falling, partial curve, poor fit] | 
24 | COc1ccc(C(=O)N/N=C\c2ccc(OC)c(COc3ccccc3Br)c2)c(OC)c1 |  | inactive: -20.6%
25 | CCCCOC(=O)Nc1sc2nc(C)cc(C)c2c1-n1cccc1 | inconclusive: 16.4 µM [activator, partial curve, poor fit] | 
26 | Cc1ccccc1-n1nc2c(c1NC(=O)C(C)(C)C)CS(=O)(=O)C2 |  | inactive: 0.0499%
27 | COc1ccc(C(=O)/C=C/Sc2nc3ccccc3o2)cc1 |  | inactive: 8.06%
28 | CC(C)(C)c1ccc(C(=O)NCCC(=O)N2CCCC2)cc1 | inconclusive: 18.4 µM [activator, partial curve] | 
29 | O=C1COc2ccc(S(=O)(=O)N3CCc4ccccc43)cc2N1 |  | inactive: -24.1%
30 | CCN(CC)CCNC(=O)c1ccc(NC(=O)c2ccc(Cl)c(S(=O)(=O)N3CCCCCC3)c2)cc1 | inconclusive: 29.1 µM [falling, single point] | 
31 | Cc1ccc(CNC(=O)/C=C/c2ccc(S(=O)(=O)NCc3ccco3)cc2)cc1 | inconclusive: 6.51 µM [activator, partial curve, poor fit] | 
32 | CC1CCc2c(sc(NC(=O)COC(=O)c3ccc(O)cc3)c2C#N)C1 (stereo not drawn) | inconclusive: 0.326 µM [activator, full curve, poor fit] | 
33 | CC[C@]12c3[nH]c4ccccc4c3CCN1C(=O)C(CC(=O)NC/C=C(\C)CCC=C(C)C)C[C@@H]2C(=O)N1CCN(C(=O)c2ccco2)CC1 (stereo partly drawn) | active: 23.1 µM | 
34 | O=C1CCc2cc(S(=O)(=O)NCc3ccccc3)ccc2N1 |  | inactive: 2.86%
35 | O=C(Nc1ccc(S(=O)(=O)N2CCCCC2)cc1)c1ccccc1Cl | inconclusive: 16.4 µM [falling, partial curve, poor fit] | 
36 | COc1ccc(C(C(=O)NC2CCCC2)N(Cc2ccccc2)C(=O)c2nsc(Cl)c2Cl)cc1 (stereo not drawn) | inconclusive: 20.6 µM [falling, single point] | 
37 | O=C(O)c1ccc(N=Nc2c(O)[nH]c3cc(Cl)ccc23)cc1 | inconclusive: 29.1 µM [activator, single point] | 
38 | COc1cccc(NC(=O)c2ccc3c(c2)N(CC(=O)N2CCOCC2)C(=O)C(C)(C)O3)c1 | inconclusive: 7.31 µM [activator, partial curve, poor fit] | 
39 | O=[N+]([O-])c1nn(-c2ccc(Cl)cc2)n(O)c1=NCc1cccnc1 | inconclusive: 25.9 µM [activator, single point] | 
40 | Cc1ccccc1CNC(=O)CN1C(=O)CCCc2ccccc21 | inconclusive: 29.1 µM [activator, single point] | 
41 | Cc1cc(C(=O)OCC(N)=O)c(C)n1-c1ccccc1 |  | inactive: 20.4%
42 | CC(C)C[C@H]1CN([C@@H](CC(C)C)CN2CCCC2CN2C(=S)NC[C@@H]2Cc2ccc(O)cc2)C(=S)N1CCc1ccccc1 (stereo partly drawn) | inconclusive: 18.4 µM [falling, single point] | 

Row | SMILES | Potency | activity change, negative = inhibition
43 | Cc1cccn2c(=O)nc(SCC(=O)N3N=C(c4cccs4)CC3c3ccc(F)cc3)nc12 (stereo not drawn) | inconclusive: 32.6 µM [falling, single point] | 
44 | Cn1c(=O)n(C)c2cc(NS(=O)(=O)c3ccc(Br)s3)ccc21 | inconclusive: 9.2 µM [falling, partial curve, poor fit] | 
45 | CCn1c(SCC(=O)n2nc(C)cc2C)nnc1-c1ccc2c(c1)OCO2 | inconclusive: 25.9 µM [activator, single point] | 
46 | O=C1Cc2cc(S(=O)(=O)N3CCN(c4ccc(F)cc4)CC3)ccc2N1 |  | inactive: -18.5% [at 92.2 µM]
47 | C[C@@H](CN1C2=NC[C@H](Cc3ccccc3)N2C[C@H]1Cc1ccc(O)cc1)NC(=O)CCC1CCCCC1 |  | inactive: 3.23%
48 | CC(C)CCOc1cccc(OCC(=O)NC2CCS(=O)(=O)C2)c1 (stereo not drawn) | inconclusive: 18.4 µM [falling, single point] | 
49 | CCOC(=O)Cn1c(CN(C)Cc2ccccc2)nc2c1c(=O)n(C)c(=O)n2C | inconclusive: 29.1 µM [falling, single point] | 
50 | C=CCn1c(=O)c(C(=O)Nc2ccccc2C)c(O)c2ccccc21 | inconclusive: 2.59 µM [activator, full curve] | 
51 | Cn1cc(/C=C2/SC(=O)N(CC(=O)Nc3ccc4c(c3)OCO4)C2=O)c2ccccc21 | inconclusive: 14.6 µM [falling, partial curve, poor fit] | 
52 | O=C(NCC1CCCCC1)c1cc(S(=O)(=O)N2CCCCC2)ccc1Cl | inconclusive: 9.2 µM [falling, partial curve, poor fit] | 
53 | O=C1c2ccccc2CN1CCSC(=S)N1CCOCC1 | inconclusive: 2.59 µM [activator, full curve] | 
54 | CCCCC1=NN(C(=O)c2ccco2)C(O)(C(F)(F)F)C1 (stereo not drawn) | inconclusive: 23.1 µM [activator, partial curve] | 
55 | CCc1ccc(NC(=O)CSc2ccc(-c3sc(-c4ccccc4)nc3C)nn2)cc1 | inconclusive: 25.9 µM [activator, partial curve, poor fit] | 
56 | CCOc1cc(/C=N/NC(=O)c2cccc([N+](=O)[O-])c2)ccc1OS(=O)(=O)c1ccccc1 | inconclusive: 14.6 µM [falling, partial curve, poor fit] | 
57 | CC(C)c1nc(=S)c2ccccc2[nH]1 | inconclusive: 29.1 µM [activator, partial curve, poor fit] | 
58 | Cc1ccccc1Cn1c(CN2CCc3ccccc3C2)nc2c1c(=O)n(C)c(=O)n2C |  | inactive: -8.35%
59 | O=C(c1cccc(OC2CCN(Cc3ccc(F)cc3Cl)CC2)c1)N1CCCC1 | inconclusive: 23.1 µM [falling, partial curve] | 
60 | C#CCN1C(=O)S/C(=C/c2cc(C)n(CC)c2C)C1=O | inconclusive: 6.51 µM [activator, partial curve] | 
61 | O=C(O)Cc1sc(Nc2ccc(Cl)cc2)nc1-c1cccs1 |  | inactive: 91.4%
62 | CC(NC(=O)c1cc(S(=O)(=O)N2CCOCC2)ccc1F)c1ccc(-n2ccnc2)cc1 (stereo not drawn) | inconclusive: 18.4 µM [falling, partial curve, poor fit] | 
63 | Cc1ccc(C(CNS(=O)(=O)c2ccccc2)N2CCN(C)CC2)cc1 (stereo not drawn) | inconclusive: 2.59 µM [activator, partial curve, poor fit] | 

Look-ups from the results shown:
Potency, CCc1ccc(NC(=O)CSc2ccc(-c3sc(-c4ccccc4)nc3C)nn2)cc1 is entered as inconclusive: 25.9 µM [activator, partial curve, poor fit]
Potency, CCOc1cc(/C=N/NC(=O)c2cccc([N+](=O)[O-])c2)ccc1OS(=O)(=O)c1ccccc1 is entered as inconclusive: 14.6 µM [falling, partial curve, poor fit]
Potency, Cc1ccc(C(CNS(=O)(=O)c2ccccc2)N2CCN(C)CC2)cc1 (stereo not drawn) is entered as inconclusive: 2.59 µM [activator, partial curve, poor fit]
Potency, C#CCN1C(=O)S/C(=C/c2cc(C)n(CC)c2C)C1=O is entered as inconclusive: 6.51 µM [activator, partial curve]
